{"source": "paper PMC5447890", "note": "No constants are given. Whether binding was seen depends on the method and setting."}
{"molecular_target": "T1, granule-bound starch synthase I (StGBSS), in pGBKT7 (potato (Solanum tuberosum L.)) (UniProt Q00775)", "T1 sequence": "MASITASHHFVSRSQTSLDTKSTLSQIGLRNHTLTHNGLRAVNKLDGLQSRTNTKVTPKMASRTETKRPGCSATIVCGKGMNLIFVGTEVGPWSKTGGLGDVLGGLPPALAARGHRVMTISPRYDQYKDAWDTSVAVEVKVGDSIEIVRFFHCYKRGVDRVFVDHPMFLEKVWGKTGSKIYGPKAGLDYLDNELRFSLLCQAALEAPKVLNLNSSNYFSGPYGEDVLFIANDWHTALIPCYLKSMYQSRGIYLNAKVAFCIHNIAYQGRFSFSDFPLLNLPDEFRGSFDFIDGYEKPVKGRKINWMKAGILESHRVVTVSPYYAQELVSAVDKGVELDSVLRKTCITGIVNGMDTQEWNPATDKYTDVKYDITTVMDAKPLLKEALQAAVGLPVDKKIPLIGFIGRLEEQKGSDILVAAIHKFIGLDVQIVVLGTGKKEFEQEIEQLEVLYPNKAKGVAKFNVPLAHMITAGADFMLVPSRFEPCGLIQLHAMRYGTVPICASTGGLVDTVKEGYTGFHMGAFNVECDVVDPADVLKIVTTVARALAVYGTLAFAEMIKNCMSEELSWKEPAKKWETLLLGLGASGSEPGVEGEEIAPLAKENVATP", "assay": "two-hybrid; Gal4-based yeast two-hybrid, pGADT7 and pGBKT7 vectors in yeast strain AH109; colour on SD/–Leu–Trp/X-α-Gal and survival on SD/–Leu–Trp–His"}
{"substance": "StAmy23, in pGADT7 (potato (Solanum tuberosum L.))", "binding": "no binding"}
{"substance": "StBAM1, in pGADT7 (potato (Solanum tuberosum L.))", "binding": "no binding"}
{"substance": "StBAM9, in pGADT7 (potato (Solanum tuberosum L.))", "binding": "no binding"}
